Some of the results follow.
B1: il2ra_site1_3nfp_normal_mot_eb5a5eebac1e5153f932cc6c3f4b2787_0001_af2_000000065_0001_18_33_H_._31bff7180b20e3ed47766ceefd9934be_0001_af2_0001_0000100001_0000001 … (protein)
chain: DEEEELAELIRQAVEKNDPELLERVAQELLEKLGDPKEASRLFEELLEKAGLSPRERQLALELSV
B2: il2ra_site1_3nfp_normal_mot_ems_3hM_3354_af2_000000165_0001_44_63_H_._HEEHE_1486_af2_0001_0000100002_0000001_0 (protein)
chain: DLEEAVEEAAKKLAEVVGVPSWEVEVENGTVHVELEGTDHQAKAAAKIIEFAAKAFGVPVEVEVR
B3: il2ra_site1_2b5i_normal_mot_HHH_b1_01495_af2_000000272_0001_42_56_H_._HHH_b2_08205_af2_0001_0000300011_0000001_1_af2pred_dldesign_0_af2pred (protein)
chain: SSSSSSSLFDETERLFNEASKIKDKEERKKVLEKALEVAKKANDEVAVADIEYFLSRVKSSSSSS
B4: il2ra_site2_2erj_normal_mot_HHH_b2_02303_000000050_0001_43_56_H_._HHH_b2_07721_af2_0001_0000100009_0000001_0 (protein)
chain: SSSSNELLRELYELLRELAQLVYEGDEERAKELIEEIEELAKELNITVAEEVLRTLQRHLNSSSS
B5: il2ra_site1_1z92_sap_17_mot_30aa582283ecb64a35315be28fff3e94_0001_000000110_0001_35_49_H_._210159fdb1b1f1ad465d550914d6d852_0001_0001_0000300032_0000001_0_0001 (protein)
chain: SSSSSSEEEAVEYHKRLLESALRLGNEELLKMLLRAAEMLAERLNDEELRELVEEIEEKYSSSSS
B6: il2ra_site1_3nfp_normal_mot_HHH_b1_03753_af2_000000088_0001_41_54_H_._894fcaf535bbcaf6280540f02ced91cd_0001_0001_0000300013_0000001_0_af2pred_0001_af2pred_1_swa … (protein)
chain: SLEEEVERLLREAGAPPHAIKIIKQLLEAVKRGNPSARRLLEINIRAARNLGNEAAVEALELALK
B7: il2ra_site2_2erj_sap_26_mot_HHH_b1_01129_af2_000000281_0001_18_33_H_._HHH_b1_00424_0001_0000100001_0000001_0_0001 (protein)
chain: SSSSSNDAERVNRLIREVIELFREGNPEEAERLLRELEEFLRELGDEELLEAVELLLKMLSSSSS
B8: il2ra_site1_1z92_sap_14_mot_HHH_b1_03619_000000222_0001_22_39_H_._HHH_b2_04685_af2_0001_0000300015_0000001_0_0001 (protein)
chain: SSSSSVHESAELALRVAKRAAERGDPEKAQEWAEFALRQLEMLGDPLAEEVRELEEEIERLSSSS
B9: il2ra_site1_2b5i_normal_mot_HHH_b1_06258_af2_000000112_0001_42_56_H_._HHH_b2_04697_af2_0001_0000300042_0000001_0_af2pred_0001_af2pred (protein)
chain: SSSSDEEFERIYELYLEASRLFRQGNHEEARELLEEAIQLAKEGNDEKLLKQLEHMLKALGSSSS
B10: il2ra_site2_2erj_sap_14_mot_HHH_b2_01204_af2_000000056_0001_19_34_H_._HHH_b2_03878_0001_0000200011_0000001_0_0001 (protein)
chain: SSSSDWLHELYELASEITRLLAEGDPEEARRLLEELEELAEENDSPNAEEIVERLEKKIESSSSS
B11: il2ra_site2_2erj_normal_mot_HHH_b1_02713_af2_000000038_0001_1_19_H_._HHH_b2_05421_0001_0000700029_0000001_1 (protein)
chain: SSSSSEEKEAIRHALLRAELLIEEGNEEEARQVLESALRYAKQLGDEEVLEEIEKLLKELSSSSS
B12: il2ra_site2_3nfp_normal_mot_HHH_b1_00660_af2_000000090_0001_40_57_H_._HHH_b1_05518_af2_0001_0000100003_0000001_0_1_af2pred_0001_af2pred (protein)
chain: SSSSDEEEAEKILEQAERVLENGNPEEARELLEEAAHLAVQNGDFELLTKILRLLEEVERRSSSS
B13: il2ra_site1_2b5i_normal_mot_f5ff40796168375b462bec8614a1db4a_0001_1_000000138_0001_53_65_H_._ems_3hM_2054_af2_0001_0000100009_0000001_0_af2pred_dldesign_0_af2pr … (protein)
chain: SDEEVEDIRERATAATRAALAANDPLLARKLVLLVRRWARKHNNPELEEVVRELEKMIADYLESS
B14: il2ra_site1_1z92_normal_mot_HHH_b1_05862_af2_000000270_0001_22_38_H_._HHH_b1_00437_0001_0000100007_0000001_0 (protein)
chain: SSSSDRAEKWAFELAELLIRALERAGDPKAREQVEFLIEDLELLGNPELAEELRELLEEVDSSSS
B15: il2ra_site2_3nfp_normal_mot_HHH_b2_05281_000000198_0001_39_56_H_._HHH_b1_08465_0001_0000600035_0000001_0 (protein)
chain: SSSSDLEERVRELLERAEELLEKGNPEEARKFIAEAVELVYENRNAELFFLVAEVAFKLAQSSSS
B16: il2ra_site1_2b5i_normal_mot_HHH_b1_03123_000000199_0001_1_18_H_._HHH_b2_06006_0001_0000500022_0000001_0_af2pred_dldesign_0_af2pred (protein)
chain: SSSSSDAYDRIYDLYKEALRLKREGKKEEAKKVLEEAIALATAAGDTKAVAELQRLLELLSSSSS
B17: il2ra_site2_2erj_normal_mot_6d5f7cbc25fed124e3eb7f952334b9cf_0001_af2_000000048_0001_1_13_H_._HHH_b1_00754_af2_0001_0000300008_0000001_0 (protein)
chain: SSSSSDAVEFARKVFEEAHELFKQGNREEVERLLEEAIEELERLGDPAAALALEAALKFISSSSS
B18: il2ra_site2_3nfp_sap_38_mot_HHH_b2_07052_af2_000000028_0001_19_35_H_._HHH_b2_02165_0001_0000100012_0000001_0_0001 (protein)
chain: SSSSDAEEYVRAALALLRRALKEGDEEAFERLAEIVRLAIESNNDEELERELEKIKEEFENSSSS
B19: il2ra_site1_3nfp_normal_mot_HHH_b1_06312_000000199_0001_1_18_H_._HHH_b2_07370_af2_0001_0000200023_0000001_1_af2pred_0001_af2pred (protein)
chain: SSSDRTEEVLERFRRVFELARNGNEEEAEELLEELIRLLEEQGNEAAVKFARAALEVLRSQSSSS
B20: il2ra_site1_2b5i_normal_mot_ems_3hM_3687_af2_000000248_0001_45_64_H_._HHH_b2_02169_af2_0001_0000200006_0000001_0_af2pred_dldesign_0_af2pred (protein)
chain: SSSSSDVEKKVQELIERAEKEKDLRKALEILQEAYDLADEAGREELADYVEELAKKRLLGSSSSS
B21: il2ra_site2_2erj_sap_10_mot_HHH_b1_05650_000000005_0001_42_56_H_._HHH_b1_02138_0001_0000100006_0000001_0_0001_af2pred_0001_1_af2pred_swapped (protein)
chain: SSSSSVEERLEELKEKAKELEERGNPEEARKVLREALLIAAQNNNEELAEELSHLLSKLHSSSSS
B22: il2ra_site1_3nfp_normal_mot_HHH_b1_05868_000000088_0001_43_57_H_._HHH_b1_05429_0001_0000100013_0000001_0_af2pred_0001_af2pred_1_swapped (protein)
chain: SSSSDRRSRELIEAARMLAEELNDPETLERLEQLREEYEEEGDERLLREVFKLLRELLERASSSS
B23: il2ra_site1_2b5i_sap_7_mot_HHH_b1_05947_000000126_0001_42_56_H_._HHH_b1_05810_af2_0001_0000100008_0000001_1_0001_af2pred_0001_af2pred (protein)
chain: SSSSSEEEQRAFELYHEASRAFSNGDKERARELLEEAIELAEEAGDPKIKRELEQFLEMLSSSSS
B24: il2ra_site1_3nfp_normal_mot_HHH_b2_00286_000000273_0001_43_57_H_._HHH_b2_04458_af2_0001_0000200012_0000001_0 (protein)
chain: SSSSDEHELSRLLLELFKAIRNNDEEKVEELLEEVRRLIEELGDRVARLLLEQLEEQLRLSSSSS
B25: il2ra_site2_2erj_normal_mot_af86707857d369f3e1d85dcabc5f9321_0001_000000201_0001_14_29_H_._HHH_b1_07617_0001_0001000035_0000001_1_af2pred_0001_af2pred (protein)
chain: SSSSDEEEQIERLLREARELLEEGDPERAREVVWEAAQLAAESDNEELLKEILELLREIHGSSSS
B26: il2ra_site1_1z92_normal_mot_HHH_b1_06519_000000232_0001_23_40_H_._HHH_b1_01718_0001_0000100003_0000001_0 (protein)
chain: SSSSDERARELVEFLLRDARLLAEHGNRRAIEWIFELVRALLRAIGDPEVEEILEEIEELGSSSS
B27: il2ra_site1_1z92_normal_mot_HHH_b2_00494_000000030_0001_41_54_H_._HHH_b2_03017_af2_0001_0000100004_0000001_1 (protein)
chain: SSSSSSDKTEEVQHLFHEAARIRDKEEARQVLEEALELAREAGNEELAKDIEQYLEFLSSSSSSS
B28: il2ra_site2_3nfp_normal_mot_HHH_b1_05392_000000081_0001_38_55_H_._HHH_b2_06351_af2_0001_0000100004_0000001_0 (protein)
chain: SSSSSELEELLREAEELLEEGDPFEAAQVLLKAHEIALERNDEEAIRIIAEVYEELVKLYNSSSS
B29: il2ra_site1_1z92_sap_12_mot_HHH_b1_02460_000000277_0001_1_17_H_._HHH_b1_04024_af2_0001_0000400020_0000001_0_0001_af2pred_0001_af2pred_1_swapped (protein)
chain: PEELAREARELLEKGNPEEAEKVLRELAREQGSEEAFKRDLEKAEEFLGDPELALKALIRALATF
B30: il2ra_site2_3nfp_sap_14_mot_HHH_b1_07674_000000021_0001_42_55_H_._HHH_b2_04277_af2_0001_0000200006_0000001_0_0001 (protein)
chain: SSSSDEIEELLNRIFELLQQGDLEEAEELIEEVRRLAEELGDERLLRAVQLLTAALKLRASSSSS
B31: il2ra_site2_3nfp_normal_mot_HHH_b2_04451_000000238_0001_21_37_H_._HHH_b1_07051_af2_0001_0000200015_0000001_0 (protein)
chain: SSSSEEEEVRELLEEARELLEEGDKYEALELVAEASELASKKNNEELARLILELFEEIQRLSSSS
B32: il2ra_site1_1z92_normal_mot_HHH_b1_00368_000000203_0001_23_39_H_._HHH_b1_03388_af2_0001_0000300049_0000001_0_af2pred_0001_af2pred_1 (protein)
chain: SSSSDEKLEHNARIVVEMLVEIARLSEEDQEELEELAKELVERGVDLRELLRILNELALELSSSS
B33: il2ra_site2_3nfp_sap_26_mot_HHH_b1_04180_000000024_0001_19_35_H_._HHH_b2_05417_0001_0001100114_0000001_0_0001_af2pred_0001_1_af2pred_swapped (protein)
chain: SSSSSDEEEEEVERLLEEAKEIEDKHELFAVLLLAYQVAEEAGDEELRRRVEELARELLSSSSSS
B34: il2ra_site1_1z92_sap_17_mot_HHH_b1_00368_000000203_0001_23_39_H_._HHH_b2_04234_0001_0000100010_0000001_0_0001_af2pred_0001_af2pred_1 (protein)
chain: SSSSDEEEAERLYHLAAEALERRDEELLRELLELVEELLEKTGDPRIEKLLKLIEEYLEAHSSSS
B35: il2ra_site1_2b5i_sap_19_mot_HHH_b1_07515_af2_000000276_0001_42_54_H_._HHH_b1_04581_0001_0000200012_0000001_0_0001_af2pred_dldesign_0_af2pred (protein)
chain: SSSSDPKAEIKKLLEEAKKLKEEGKKREALETLEEAYKLAAEAEDEELYDEVEELAKELLSSSSS
B36: il2ra_site1_3nfp_normal_mot_HHH_b1_02167_af2_000000151_0001_18_34_H_._HHH_b2_02051_0001_0000200007_0000001_0 (protein)
chain: SSSSDAEELIEEYERELKELLKEGDTQRAARVLEEAIRLATELDNPELAQRLYELARELIKSSSS
B37: il2ra_site1_1z92_normal_mot_01209686ea234b34325f918445e6eade_0001_af2_000000144_0001_18_33_H_._966a9f62293634969225d85b517b1661_0001_1_0001_0000200019_0000001_0 … (protein)
chain: SVEEQLEELLKRNEEEAKELAIELAARIADAPPEEIRKSLELLERLTGDPRHAVRNLIIFARNLE

Each binder was assayed against il2ra, P01589 (assay: yeast display titration).

Apparent Kd, inactive:
B1 no binding seen, B2 no binding seen, B3 no binding seen, B4 no binding seen, B5 no binding seen, B6 no binding seen, B7 no binding seen, B8 no binding seen, B9 no binding seen, B10 no binding seen, B11 no binding seen, B12 no binding seen, B13 no binding seen, B14 no binding seen, B15 no binding seen, B16 no binding seen, B17 no binding seen, B18 no binding seen, B19 no binding seen, B20 no binding seen, B21 no binding seen, B22 > 912 nM, B23 no binding seen, B24 no binding seen, B25 no binding seen, B26 no binding seen, B27 no binding seen, B28 no binding seen, B29 > 949 nM, B30 no binding seen, B31 no binding seen, B32 no binding seen, B33 no binding seen, B34 no binding seen, B35 no binding seen, B36 no binding seen, B37 no binding seen
